Results are given in words; binding and its absence hold for the method and conditions named. Binding seen in cells or lysates may run through a third protein. A yes stands for co-enrichment or nearness to the bait. Other partners may have been found. Values belong to the molecule of their own block, whether it stands above or below them.
Target: FLAG-CHMP2B^Intron5 (UniProt Q9UQN3)
Assay: affinity purification with mass spectrometry; anti-FLAG M2 affinity gel IP from lysates of HEK293 cells transfected with FLAG-CHMP2B^Intron5, FLAG-CHMP2B^WT or empty FLAG vector; FLAG peptide elution; in-gel digestion, LC-MS/MS, IBAQ quantification

The chains behind the UniProt entries cited, without tags or fusion partners. Where a name states a change or a piece, a line headed by the entry shows the natural chain unless it says otherwise.
UniProt Q9UQN3: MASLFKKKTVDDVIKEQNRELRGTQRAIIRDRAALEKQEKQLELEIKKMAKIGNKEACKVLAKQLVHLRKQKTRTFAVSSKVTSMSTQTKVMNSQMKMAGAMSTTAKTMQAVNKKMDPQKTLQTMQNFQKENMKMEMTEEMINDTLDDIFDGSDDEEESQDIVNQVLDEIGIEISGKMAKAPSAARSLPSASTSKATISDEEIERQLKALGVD
UniProt Q9NZZ3: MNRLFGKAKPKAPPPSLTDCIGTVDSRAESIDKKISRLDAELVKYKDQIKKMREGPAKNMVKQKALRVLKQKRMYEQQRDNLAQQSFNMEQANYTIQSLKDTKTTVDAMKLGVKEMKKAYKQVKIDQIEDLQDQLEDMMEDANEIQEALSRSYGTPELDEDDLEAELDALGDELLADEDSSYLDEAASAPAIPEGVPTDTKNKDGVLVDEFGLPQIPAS

binding: binds
Molecule: CHMP5 (from UniProt Q9NZZ3 1-219)

binding: binds
B1: CHMP1B (protein, UniProt Q7LBR1 1-199)
chain: MSNMEKHLFNLKFAAKELSRSAKKCDKEEKAEKAKIKKAIQKGNMEVARIHAENAIRQKNQAVNFLRMSARVDAVAARVQTAVTMGKVTKSMAGVVKSMDATLKTMNLEKISALMDKFEHQFETLDVQTQQMEDTMSSTTTLTTPQNQVDMLLQEMADEAGLDLNMELPQGQTGSVGTSVASAEQDELSQRLARLRDQV
